Data reported in article PMC4270071.
Positions count from the first letter of the chain named. No constants are given. Whether binding was seen depends on the method and setting. Some entries that bind do so weakly or less than the wild type. Where a sequence is shown, tags or fusion partners need not be part of it.

Experiments:
Assay in all cases: co-purification of co-expressed subunits (tandem affinity); Sf9 cells co-expressing His6-DKC1 (wild type or mutant), GAR1, FLAG-NHP2, NOP10 (wild type or R34W); Ni-NTA, Heparin Sepharose (1 M NaCl eluate), anti-FLAG agarose, mock or MNase treated, washed with 0.6 M NaCl, FLAG peptide elution; silver or Coomassie stain
[1] = biological target: T1, His6-tagged human DKC1 A353V (Sf9) (human) (UniProt O60832)
T1 sequence: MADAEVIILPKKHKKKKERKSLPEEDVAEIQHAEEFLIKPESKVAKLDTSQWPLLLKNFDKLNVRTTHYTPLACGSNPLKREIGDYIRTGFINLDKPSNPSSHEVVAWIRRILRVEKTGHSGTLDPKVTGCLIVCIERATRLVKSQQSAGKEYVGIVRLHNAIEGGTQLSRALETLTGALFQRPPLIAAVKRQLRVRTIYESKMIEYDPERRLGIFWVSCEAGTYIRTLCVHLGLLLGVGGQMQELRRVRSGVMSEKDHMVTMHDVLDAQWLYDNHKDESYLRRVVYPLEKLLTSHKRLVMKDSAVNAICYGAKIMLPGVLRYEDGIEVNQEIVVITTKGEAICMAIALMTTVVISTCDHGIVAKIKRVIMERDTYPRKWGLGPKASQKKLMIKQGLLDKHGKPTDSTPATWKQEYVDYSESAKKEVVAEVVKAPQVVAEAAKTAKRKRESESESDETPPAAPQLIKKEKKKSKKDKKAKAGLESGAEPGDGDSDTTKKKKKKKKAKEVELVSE

[2] = biological target: T2, His6-tagged human DKC1 D125A (Sf9) (human) (UniProt O60832)
T2 sequence: T1 sequence with D125A, V353A

[3] = biological target: T3, His6-tagged human DKC1, wild type (Sf9) (human) (UniProt O60832)
T3 sequence: T1 sequence with V353A

[4] = biological target: T4, His6-tagged human DKC1 L37del (Sf9) (human) (UniProt O60832)
T4 sequence: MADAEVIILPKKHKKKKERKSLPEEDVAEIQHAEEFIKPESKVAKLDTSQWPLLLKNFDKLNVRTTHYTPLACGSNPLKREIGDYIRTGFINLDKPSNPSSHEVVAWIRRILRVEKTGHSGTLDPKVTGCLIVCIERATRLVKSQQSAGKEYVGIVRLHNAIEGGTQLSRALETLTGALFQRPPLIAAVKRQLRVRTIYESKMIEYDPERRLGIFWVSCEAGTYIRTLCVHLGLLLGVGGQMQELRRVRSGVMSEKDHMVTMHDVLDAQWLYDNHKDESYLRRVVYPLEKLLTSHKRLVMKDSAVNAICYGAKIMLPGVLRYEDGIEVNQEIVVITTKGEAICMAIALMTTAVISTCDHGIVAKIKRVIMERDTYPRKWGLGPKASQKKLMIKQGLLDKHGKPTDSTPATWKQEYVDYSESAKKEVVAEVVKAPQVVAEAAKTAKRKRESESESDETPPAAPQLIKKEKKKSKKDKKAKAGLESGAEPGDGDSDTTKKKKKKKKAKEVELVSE

Measured: binding

B1: FLAG-tagged NHP2 (Sf9) (protein, UniProt Q9NX24 1-153)
chain: MTKIKADPDGPEAQAEACSGERTYQELLVNQNPIAQPLASRRLTRKLYKCIKKAVKQKQIRRGVKEVQKFVNKGEKGIMVLAGDTLPIEVYCHLPVMCEDRNLPYVYIPSKTDLGAAAGSKRPTCVIMVKPHEEYQEAYDECLEEVQSLPLPL
binds: all assays above
